Results are given in words; binding and its absence hold for the method and conditions named. In cells and extracts the contact can be indirect. Here binding means that the protein was enriched with, or labelled near, the bait; the list need not be complete.
Experiments:
[1] = target: 3 × Flag::PilG fusion protein (Xanthomonas campestris pv. campestris strain 8004); experiment: affinity purification with mass spectrometry; 3 × Flag-tagged PilG or PilH precipitated with ANTI-FLAG agarose from Xcc lysate (25 mM Tris-HCl pH 7.4, 100 mM NaCl, 1 mM EDTA, 1% NP-40, 10% glycerine), 4 °C, 3 h; eluted with 0.25 M glycine pH 2.5; done twice, results of the untagged control strain removed
[2] = target: 3 × Flag::PilH fusion protein (Xanthomonas campestris pv. campestris strain 8004); experiment: as above

B1: PilU (XC_1359) (protein, UniProt Q8P759 1-376)
chain: MSTIDFTSFLKLMAHQKASDLFITSGMPPAIKVHGKISPITQTPLTAQQSRDLVLNVMTPSQREEFEKTHECNFAIGVSGVGRFRVSCFYQRNQVGMVLRRIETRIPTVEELSLPPVIKTLAMTKRGIIIFVGATGTGKSTSLAAMIGYRNQNSTGHIITIEDPIEFVHKHEGCIITQREVGIDTDSWENALKNTLRQAPDVIMIGEVRTREGMDHAIAFAETGHLVLCTLHANNANQAMDRIINFFPEDRRNQLLMDLSLNLKGVVAQQLIPTPDGRGRRVAMEIMLGTPLVQDYIRDGEIHKLKEIMKESTNLGMRTFDQSLFELYQAGEISYEDALRYADSQNEVRLRIKLSQGGDAKTLSQGLDGVEIAEVR
binding [1]: binds

B2: PhoP (XC_4031) (protein, UniProt Q7CLM6 1-227)
chain: MRILLVEDEAPLRETLAARLKREGFAVDAAQDGEEGLYMGREVPFDVGIIDLGLPKMSGMELIKALRDEGKKFPVLILTARSSWQDKVEGLKQGADDYLVKPFHVEELLARVNALLRRAAGWSKPTLECGPVALDLAAQTVSVNGANVDLTSYEYKVLEYLMMHAGELVSKADLTEHIYQQDFDRDSNVLEVFIGRLRKKLDPDGELKPIETVRGRGYRFAIPRTEG
binding [2]: binds
